Assay results published in patent US20230285589A1, “LIPOSOME COMPLEX FOR CANCER TREATMENT, COMPRISING NOVEL CD47 BINDER AND POLYNUCLEOTIDE” (priority 2020, published 2023).
These are yes or no findings as the source states them, for the method shown. Some entries that bind do so weakly or less than the wild type. One block for each binder: values may come before it.

Chains of the proteins cited; added tags and fusions are not shown. Residues count along the entry.
UniProt Q08722, residues 19-139: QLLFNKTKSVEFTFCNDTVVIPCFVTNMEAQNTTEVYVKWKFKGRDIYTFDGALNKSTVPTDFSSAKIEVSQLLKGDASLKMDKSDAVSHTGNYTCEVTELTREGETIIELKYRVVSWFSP

Biological target: recombinant CD47 protein (UniProt Q08722)
Test: SPR; recombinant CD47 on CM5 chip

binding: binds
B1: SV4 (designed binder)
chain: MEEELQIIQPDLSVSVAAGESAILHCTITSLFPVGPIQWFRGAGPARVLIYNQRQGPFPRVTTVSETTKRENMDFSISISNITPADAGTYYCIKFRKGSPDTEFLSGAGTELSVRAKPS

binding: binds
B2: SV4-DSPE (DSPE-conjugated SV4) (designed binder)
chain: B1 chain
